# Source: PubChem BioAssay AID504444 (National Center for Advancing Translational Sciences (NCATS), 2011)
# The whole screen tested about 360,000 compounds, of which about 7,500 (2.1%) were called active. The inconclusive results got no clear call from the source; some entries with a clear call stand among them for comparison. The call rests on the fitted dose curve; in most records, active means well fitted inhibition curve with a large enough effect; inconclusive means small, poorly fitted or top-dose-only effect, or effect the other way; inactive means flat fitted curve, though single readings scatter. A potency beside an inconclusive call is a rough fit, not a confirmed value.
# Assay: Nrf2 qHTS screen for inhibitors; further: nearly all actives have a fitted effect of over 60% in size
# Details: A549 ARE-Fluc reporter, luciferase luminescence, 18-24 h; activity change, negative = inhibition: at 46 µM (top of the series)
# Outline: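 Nrf2 function is reported as luminescence of an ARE-controlled luciferase in A549 cells. Compounds were tested at several concentrations, and a CellTiter-Fluor read on the same wells flagged cytotoxicity.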
# On the % scale 0 is the no-effect control and ±100 the full control effect; potency means the concentration at half of the fitted maximal effect.
Structure (SMILES),Potency,"activity change, negative = inhibition"
CCOc1ccc(N(CC(=O)Nc2ccc(C)cc2)S(C)(=O)=O)cc1,"inconclusive: 10.3 µM [activator, partial curve]",–
CCOC(=O)CSc1nc2cc3c(cc2cc1C#N)OCO3,"inconclusive: 29.1 µM [activator, single point]",–
CC(C)NC(=O)C1CCN(c2nc3ccccc3nc2C(F)(F)F)CC1,–,inactive: -28%
CCOC(=O)c1c(C)[nH]c(C(=O)Nc2ccc(NC(C)=O)cc2)c1C,active: 8.2 µM,–
O=C(Nc1ccccc1)c1cc(S(=O)(=O)NCc2ccncc2)ccc1Cl,active: 18.4 µM,–
COc1cccc(-c2ccc3ncnc(N(C)Cc4ccco4)c3c2)c1,"inconclusive: 29.1 µM [falling, single point]",–
CC(=O)NCCn1c(SCc2ccc(C)cc2)nc2ccccc2c1=O,"inconclusive: 1.84 µM [falling, full curve, poor fit]",–
Oc1c(C(Nc2cccc(C(F)(F)F)c2)c2ccncc2)ccc2cccnc12 (stereo not drawn),–,inactive: -25.4%
Cc1cc(C(=O)N/N=C/c2sccc2C)no1,"inconclusive: 16.4 µM [activator, single point]",–
O=C(NCc1ccccc1)c1ccc(CSc2nc3cccnc3n2Cc2ccccc2F)cc1,"inconclusive: 13 µM [falling, partial curve, poor fit]",–
Cc1cc(/N=C/C=C2\N(C)c3ccccc3C2(C)C)n(CCC#N)n1,"inconclusive: 29.1 µM [falling, partial curve, poor fit]",–
CC(=O)OC(Cn1ccnc1)c1ccccc1 (stereo not drawn),"inconclusive: 32.6 µM [activator, partial curve, poor fit]",–
O=C(CCCn1c(SCC(=O)c2ccc(F)cc2)nc2ccccc2c1=O)NCc1ccco1,active: 25.9 µM,–
COc1ccccc1CNC(=O)C1CCN(c2nc3ccccc3o2)CC1,"inconclusive: 29.1 µM [falling, single point]",–
Cc1ccc(C2=NN(CCC(=O)NCc3ccc4c(c3)OCO4)C(=O)CC2)cc1,–,inactive: -0.525%
COc1ccccc1/C=N\Nc1cc(C)nc(-n2nc(C)cc2C)n1,"inconclusive: 29.1 µM [falling, single point]",–
Cc1nnc(SCC(=O)Nc2nsc(-c3ccc(C(C)(C)C)cc3)n2)s1,"inconclusive: 9.2 µM [activator, partial curve]",–
CCCCNC(=O)CSc1nnc(C)c2c(C)n(-c3ccccc3)nc12,"inconclusive: 11.6 µM [falling, partial curve]",–
Cc1ccc2nc(SCC(=O)Nc3cc([N+](=O)[O-])ccc3F)[nH]c2c1,–,inactive: 19.7%
CCCCNC(=O)/C(=C\c1ccc([N+](=O)[O-])o1)NC(=O)c1ccccc1,"inconclusive: 29.1 µM [falling, single point]",–
COc1ccc(C(CCNCc2ccc(N(C)C)cc2)C(C)C)cc1 (stereo not drawn),"inconclusive: 29.1 µM [falling, single point]",–
CC(C)(C)C1CCc2c(sc(NC(=O)c3cc(C4CC4)on3)c2C#N)C1 (stereo not drawn),"inconclusive: 0.291 µM [falling, full curve, poor fit]",–

Structure (SMILES),Potency,"activity change, negative = inhibition"
COc1ccc(/C=N\NC(=O)c2ccccc2)cc1COc1ccccc1,"inconclusive: 29.1 µM [falling, single point]",–
COc1cc(/C=N/N=C2\CC3CCC2(C)C3(C)C)ccc1O (stereo not drawn),–,inactive: -13.2%
Fc1cc(F)c2nc(N3CCCC3)sc2c1,"inconclusive: 3.26 µM [activator, full curve]",–
C=CC[C@@H](CC(=O)N[C@H](CO)Cc1ccccc1)C(=O)N[C@@H](C)COC(=O)[C@@H](CC=C)Cc1ccc(F)cc1,"inconclusive: 18.4 µM [falling, single point]",–
Cc1ccc(CNC(=O)CSc2nc(N3CCCCC3)nc(N3CCCCC3)n2)cc1,"inconclusive: 18.4 µM [falling, single point]",–
O=C(Nc1ccccc1Cl)c1cccc(NC(=O)c2cccs2)c1,"inconclusive: 9.2 µM [falling, partial curve, poor fit]",–
O=C(O)c1ccc2c(c1)S(=O)(=O)c1cc(Cl)ccc1C2=O,"inconclusive: 18.4 µM [activator, single point]",–
COc1ccc(CCNC(=O)c2ccc(-c3cccc([N+](=O)[O-])c3)o2)cc1OC,"inconclusive: 16.4 µM [falling, partial curve]",–
Cc1ccc(NC(=O)C2CCN(S(=O)(=O)c3c(C)noc3/C=C/c3ccco3)CC2)cc1C,–,inactive: 6.74%
COc1nc(-c2ccccc2)cc(-c2ccc3c(c2)OCO3)c1C#N,"inconclusive: 2.59 µM [activator, full curve]",–
Cc1ccc(S(=O)(=O)c2cn(C)c3cc(N4CCCC(C)C4)c(F)cc3c2=O)c(C)c1 (stereo not drawn),–,inactive: -10.6%
OC(COC(c1ccc(F)cc1)c1ccc(F)cc1)CN1CCCC1 (stereo not drawn),"inconclusive: 0.0052 µM [falling, full curve, poor fit]",–
Fc1ccc(NC(=S)Nc2cccc3cnccc23)cc1,"inconclusive: 25.9 µM [falling, partial curve, poor fit]",–
COc1ccc(CCC(=O)OCC(=O)Nc2sccc2C#N)cc1,"inconclusive: 25.9 µM [activator, single point]",–
O=C(NCCOCCn1c(=O)oc2ccccc21)Nc1ccc(F)cc1,"inconclusive: 25.9 µM [falling, single point]",–
Cc1cc(C(=O)N2CCC(CO)(Cc3cccc(C(F)(F)F)c3)CC2)n[nH]1,"inconclusive: 20.6 µM [falling, single point]",–
O=C1N/C(=N\S(=O)(=O)Cc2ccccc2)S/C1=C/c1cc([N+](=O)[O-])ccc1O,–,inactive: 3.27%
C/C(=N\Nc1ccc([N+](=O)[O-])cc1)c1ccc2c(c1)OCO2,"inconclusive: 29.1 µM [activator, single point]",–
CCOC(=O)C1=C(CSCc2ccccc2)NC(=O)NC1c1cc(C)ccc1C (stereo not drawn),active: 18.4 µM,–
Cn1nnnc1NCc1ccc(Cl)c(Cl)c1,"inconclusive: 2.91 µM [activator, partial curve, poor fit]",–
O=C(NC1CCCc2ccccc21)c1c(F)cccc1Cl (stereo not drawn),–,inactive: -6.82%

# Two of the compounds above, as tab-separated lines.
Structure (SMILES)	Potency	activity change, negative = inhibition
OC(COC(c1ccc(F)cc1)c1ccc(F)cc1)CN1CCCC1 (stereo not drawn)	inconclusive: 0.0052 µM [falling, full curve, poor fit]	–
Fc1ccc(NC(=S)Nc2cccc3cnccc23)cc1	inconclusive: 25.9 µM [falling, partial curve, poor fit]	–
